Assay results: patent US6808873B2, “Screening assays using intramitochondrial calcium” (MitoKor, Inc., priority 2000, dated 2004)
At least one compound was matched to its structure with a doubt left.

Columns and labels:
Ca^2+ uniporter = molecular target: T1, Ca^2+ uniporter (Homo sapiens, UniProt Q8NE86); assay: High-throughput uniporter assay of different compounds, permeabilized HepG2 cells with and without thapsigargin, FLIPR II; type: cell-based; conditions: test compounds 1 micromolar
T1 construct: The effects of several intracellular Ca^2+ modulating agents (ICMAs) on permeabilized HepG2 cells were examined; endogenous in cells; host or cells: HepG2 (ATCC HB-8065), digitonin-permeabilized, in suspension
T1 sequence (Q8NE86 51-351): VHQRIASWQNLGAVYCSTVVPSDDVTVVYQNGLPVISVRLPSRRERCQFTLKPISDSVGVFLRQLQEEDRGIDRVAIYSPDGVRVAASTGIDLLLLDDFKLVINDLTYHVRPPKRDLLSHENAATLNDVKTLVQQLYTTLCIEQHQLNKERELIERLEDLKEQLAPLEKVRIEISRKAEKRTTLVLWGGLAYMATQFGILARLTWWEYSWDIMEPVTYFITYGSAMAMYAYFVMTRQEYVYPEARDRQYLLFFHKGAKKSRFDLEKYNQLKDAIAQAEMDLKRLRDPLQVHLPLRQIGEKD
T1 sequence (Q9H4I9 48-107 partner limits assumed): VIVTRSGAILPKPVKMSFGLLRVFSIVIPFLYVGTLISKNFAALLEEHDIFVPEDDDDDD

[1] = test system: mitochondria from Plasmodium yoelii; conditions: cited from earlier work
mammalian mitochondria = conditions: cited from earlier work

SMILES	uniporter activity profile after the 20 micromolar Ca^2+ pulse (Ca^2+ uniporter)	effect on mitochondrial Δψ [1]	effect on mitochondrial Δψ (mammalian mitochondria)
C=CC[C@@H]1/C=C(\C)C[C@H](C)C[C@H](OC)[C@H]2O[C@@](O)(C(=O)C(=O)N3CCCC[C@H]3C(=O)O[C@H](/C(C)=C/[C@@H]3CC[C@@H](O)[C@H](OC)C3)[C@H](C)[C@@H](O)CC1=O)[C@H](C)C[C@@H]2OC [FK506]	uniporter non-inhibitory profile	–	–
O=C1C(O)=C([C@H]2CC[C@H](c3ccc(Cl)cc3)CC2)C(=O)c2ccccc21 [atovaquone]	–	collapses Δψ	has no effect on Δψ
COC(=O)C1=C(C)NC(C)=C(C(=O)OCCN(C)Cc2ccccc2)C1c1cccc([N+](=O)[O-])c1 (centres unmarked) [nicardipine]	do not possess uniporter inhibitory activity	–	–
COCCOC(=O)C1=C(C)NC(C)=C(C(=O)OC(C)C)C1c1cccc([N+](=O)[O-])c1 (centres unmarked) [nimodipine]	do not possess uniporter inhibitory activity	–	–
